No constants are given. Whether binding was seen depends on the method and setting. Binding seen in cells or lysates may run through a third protein. Some entries that bind do so weakly or less than the wild type.

By UniProt entry, the sequences of proteins in these tests, tags left out.
UniProt P21554: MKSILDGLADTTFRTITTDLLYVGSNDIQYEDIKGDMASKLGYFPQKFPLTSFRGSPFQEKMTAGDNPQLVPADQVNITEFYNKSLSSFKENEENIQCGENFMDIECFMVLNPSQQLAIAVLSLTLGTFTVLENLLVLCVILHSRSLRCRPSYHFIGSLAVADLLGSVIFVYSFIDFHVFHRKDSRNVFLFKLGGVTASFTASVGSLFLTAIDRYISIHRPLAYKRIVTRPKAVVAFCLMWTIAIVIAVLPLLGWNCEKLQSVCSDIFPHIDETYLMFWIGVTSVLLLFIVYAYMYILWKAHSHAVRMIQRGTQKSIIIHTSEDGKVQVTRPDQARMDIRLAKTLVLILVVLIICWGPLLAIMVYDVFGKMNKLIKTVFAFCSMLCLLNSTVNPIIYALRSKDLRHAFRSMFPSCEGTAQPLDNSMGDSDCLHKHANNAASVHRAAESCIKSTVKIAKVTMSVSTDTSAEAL
UniProt P32121: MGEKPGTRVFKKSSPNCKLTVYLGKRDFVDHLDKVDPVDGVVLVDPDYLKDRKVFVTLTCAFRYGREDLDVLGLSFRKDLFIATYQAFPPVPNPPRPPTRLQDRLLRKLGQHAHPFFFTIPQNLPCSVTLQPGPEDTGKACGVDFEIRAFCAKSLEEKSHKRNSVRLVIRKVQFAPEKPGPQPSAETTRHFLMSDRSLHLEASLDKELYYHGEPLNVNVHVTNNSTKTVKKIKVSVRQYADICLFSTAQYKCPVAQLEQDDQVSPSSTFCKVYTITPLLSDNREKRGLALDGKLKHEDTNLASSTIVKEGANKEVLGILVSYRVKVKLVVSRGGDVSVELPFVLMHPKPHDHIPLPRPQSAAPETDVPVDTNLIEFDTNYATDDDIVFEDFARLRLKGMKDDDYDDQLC

The assay concerns the target cannabinoid receptor 1, Rluc fusion (CB1R-Rluc) (UniProt P21554). Briefly: FRET or BRET; β-arrestin 2 recruitment BRET in intact HEK-293T cells in PBS: CB1R-Rluc donor, β-arrestin 2-Venus acceptor, GRK2 cotransfected; 5 μM coelenterazine H; agonist-induced (CP55940, AM2201, 5F-NNEI, 5F-SDB-006, 5F-CUMYL-PICA, 5F-MMB-PICA, 5F-MDMB-PICA, WIN55-212-2, Δ9-THC, AEA, 2AG); read at 2, 16, 30 and 44 min, 37 °C; BRET change = ratio with drug minus ratio without drug.

With “β-arrestin 2, Venus fusion (β-arrestin 2-Venus) (from UniProt P32121 1-409)”, the binding result is given as “binds”.

Values taken from publication PMC10623572, “Subtle Structural Modification of a Synthetic Cannabinoid Receptor Agonist Drastically Increases its Efficacy at the CB1 Receptor” (ACS Chemical Neuroscience, 2023).
